Data on 15 substances can be found in paper PMC4077438 (Beilstein Journal of Organic Chemistry, 2014).

A short description of the first data set: general procedure: solution-phase peptide synthesis; N-oxysuccinimidyl esters (BocGlyONSu or BocGly2ONSu), activated esters method. The note with it: conjugation step, hydrochlorides or trifluoroacetates.
“3’SL-sp3-Gly5-NH(CH2CH2O)3CH2CH2NH-Gly5-sp3-3’SL” registered a conjugation yield of 57%.

“3’SL-sp3-Gly6-NH(CH2CH2O)3CH2CH2NH-Gly6-sp3-3’SL” gave a conjugation yield of 51%.

The substance “6’SLN-sp2-Gly5-NH(CH2CH2O)3CH2CH2NH-Gly5-sp2-6’SLN” had a conjugation yield of 69%.

Take “6’SLN-sp2-Gly6-NH(CH2CH2O)3CH2CH2NH-Gly6-sp2-6’SLN”: the conjugation yield is 43%.

Turning to “Neu5Ac-sp1-Gly4-NH(CH2)10NH-Gly4-sp1-Neu5Ac”, the conjugation yield turned out to be 74%.

“Neu5Ac-sp1-Gly5-NH(CH2)2NH-Gly5-sp1-Neu5Ac” gave a conjugation yield of 68%.

Take “Neu5Ac-sp1-Gly5-NH(CH2)10NH-Gly5-sp1-Neu5Ac”: the conjugation yield amounted to 53%.

Consider “Neu5Ac-sp1-Gly6-NH(CH2)2NH-Gly6-sp1-Neu5Ac”, for which the conjugation yield came to 92%.

Staying with this data set, now noted: late stage modification step, HCl.
With HCl*Gly4-NH(CH2CH2O)3CH2CH2NH-Gly4*HCl, the step yield is 95%.

HCl*Gly4-NH(СH2)2NH-Gly4*HCl: the step yield was found to be 91%.

Substance HCl*Gly5-NH(CH2CH2O)3CH2CH2NH-Gly5*HCl gave a step yield of 92%.

HCl*Gly5-NH(СH2)2NH-Gly5*HCl came in with a step yield of 46%.

As for HCl*Gly6-NH(CH2CH2O)3CH2CH2NH-Gly6*HCl, the step yield came out at 91%.

Consider HCl*Gly6-NH(СH2)2NH-Gly6*HCl, for which the step yield was 68%.

Turning to HCl*Gly7-NH(CH2CH2O)3CH2CH2NH-Gly7*HCl, the step yield is reported as 88%.
